PubChem BioAssay AID1224828, NIAID – 2016

Aim: 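Find genes required for NF-kappaB p65 moving into the nucleus after LPS in mouse macrophages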 (primary screen)
Cell system: mouse RAW264.7 G9 macrophage reporter cells (GFP-p65, Tnf promoter-mCherry)
Reagent: siRNA pool against mouse genes, 100 nM
Time to read-out: 2 days siRNA transfection, then 40 min LPS before fixation
Treatment: LPS (Salmonella minnesota R595) at 10 ng/ml
Measurement: 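Imaged p65 nuclear translocation ratio, normalised to the plate median, converted to robust z-scores and averaged across two replicates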
Scale: p65 translocation robust z-score: higher = more nuclear NF-kappaB p65 after LPS than the plate median; nuclear/cytoplasmic p65 ratio: higher = more nuclear NF-kappaB p65
Active means: 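Active if robust z is above 3.3 (negative regulators) or below -1.56, the Tlr4 control median (positive regulators); activity score 50 or more; control wells not called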
Meaning of the calls: active = hit (p65 shift raised or lowered); inactive = no clear change
Shown is one part, drawn at random, of about 17,000 reagents. In the full data, 762 (4.5%) were called active. 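Active calls include both raised and lowered p65 entry, mostly lowered; wells with fewer than 50 cells lack a z-score.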 Raw values are not corrected between plates. Unmarked entries are inactive. No sequences are given here.

P2ry10 (purinergic receptor P2Y, G-protein coupled 10) — p65 translocation robust z-score = -1.66 (active); nuclear/cytoplasmic p65 ratio, rep 1 = 1.28; nuclear/cytoplasmic p65 ratio, rep 2 = 1.4; low cell count flag = enough cells to score
Dnajc5b (DnaJ heat shock protein family (Hsp40) member C5 beta) — p65 translocation robust z-score = 3.32 (active); nuclear/cytoplasmic p65 ratio, rep 1 = 1.97; nuclear/cytoplasmic p65 ratio, rep 2 = 1.73; low cell count flag = enough cells to score
Or5w13 (olfactory receptor family 5 subfamily W member 13) — p65 translocation robust z-score = -1.44; nuclear/cytoplasmic p65 ratio, rep 1 = 1.49; nuclear/cytoplasmic p65 ratio, rep 2 = 1.32; low cell count flag = enough cells to score
Nme8 (NME/NM23 family member 8) — p65 translocation robust z-score = -0.17; nuclear/cytoplasmic p65 ratio, rep 1 = 1.72; nuclear/cytoplasmic p65 ratio, rep 2 = 1.36; low cell count flag = enough cells to score
Or2l13b (olfactory receptor family 2 subfamily L member 13B) — p65 translocation robust z-score = -0.68; nuclear/cytoplasmic p65 ratio, rep 1 = 1.45; nuclear/cytoplasmic p65 ratio, rep 2 = 1.38; low cell count flag = enough cells to score
Lrrc75a (leucine rich repeat containing 75A) — p65 translocation robust z-score = -0.09; nuclear/cytoplasmic p65 ratio, rep 1 = 1.54; nuclear/cytoplasmic p65 ratio, rep 2 = 1.39; low cell count flag = enough cells to score
Bms1 (BMS1, ribosome biogenesis factor) — p65 translocation robust z-score = 2.11; nuclear/cytoplasmic p65 ratio, rep 1 = 1.72; nuclear/cytoplasmic p65 ratio, rep 2 = 1.82; low cell count flag = enough cells to score
Xrn2 (5'-3' exoribonuclease 2) — p65 translocation robust z-score = -0.53; nuclear/cytoplasmic p65 ratio, rep 1 = 1.21; nuclear/cytoplasmic p65 ratio, rep 2 = 1.19; low cell count flag = enough cells to score

Laid out differently: results already given
Lrrc75a (leucine rich repeat containing 75A)
- p65 translocation robust z-score: -0.09
- nuclear/cytoplasmic p65 ratio, rep 1: 1.54
- nuclear/cytoplasmic p65 ratio, rep 2: 1.39
- low cell count flag: enough cells to score

Bms1 (BMS1, ribosome biogenesis factor)
- p65 translocation robust z-score: 2.11
- nuclear/cytoplasmic p65 ratio, rep 1: 1.72
- nuclear/cytoplasmic p65 ratio, rep 2: 1.82
- low cell count flag: enough cells to score

Additional records:
Dnajb5 (DnaJ heat shock protein family (Hsp40) member B5) — p65 translocation robust z-score = -0.29; nuclear/cytoplasmic p65 ratio, rep 1 = 1.45; nuclear/cytoplasmic p65 ratio, rep 2 = 1.31; low cell count flag = enough cells to score
Cavin2 (caveolae associated 2) — p65 translocation robust z-score = 0.88; nuclear/cytoplasmic p65 ratio, rep 1 = 1.6; nuclear/cytoplasmic p65 ratio, rep 2 = 1.75; low cell count flag = enough cells to score
Mrpl43 (mitochondrial ribosomal protein L43) — p65 translocation robust z-score = 1.34; nuclear/cytoplasmic p65 ratio, rep 1 = 2; nuclear/cytoplasmic p65 ratio, rep 2 = 1.8; low cell count flag = enough cells to score
Ppcs (phosphopantothenoylcysteine synthetase) — p65 translocation robust z-score = -0.41; nuclear/cytoplasmic p65 ratio, rep 1 = 1.26; nuclear/cytoplasmic p65 ratio, rep 2 = 1.46; low cell count flag = enough cells to score
